Results deposited as PubChem BioAssay AID1259254 (NCATS, 2017)
Test: 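Finding genes that stop cells copying their DNA twice in one cycle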 (primary screen). Cell system: human HCT116 colorectal cancer cells. Knock-down reagent: single siRNA against human genes. Duration: 3 days. Read-out: 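Imaged Hoechst DNA stain sorts each cell into a cycle phase by DNA amount; per plate, G2 fraction set to 0% for non-targeting and 100% for GMNN siRNA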. Reading the numbers: G2 robust z-score and G2 cells, % of GMNN control: higher = more G2 cells, more excess DNA replication. Hit rule: 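Active siRNAs have a G2 robust z of 5 or more median absolute deviations over the median, which in these data means about 38% or higher of GMNN control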.
This is one part, drawn at random, of about 59,000 reagents. About 1,550 of them (2.6%) count as active. 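G2 share is only a proxy for re-replication; each gene was hit by three separate siRNAs, and active genes were retested.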 Reagents against one gene are numbered here. Not all columns of the deposit are shown. The record does not give: the amount of reagent.

{"gene knocked down": "PCDHGB7 (protocadherin gamma subfamily B, 7)", "reagent": 1, "G2 robust z-score": -0.617, "G2 cells, % of GMNN control": -1.38, "call": "inactive"}
{"gene knocked down": "PCDHGB7 (protocadherin gamma subfamily B, 7)", "reagent": 2, "G2 robust z-score": -0.665, "G2 cells, % of GMNN control": -1.71, "call": "inactive"}
{"gene knocked down": "PCDHGB7 (protocadherin gamma subfamily B, 7)", "reagent": 3, "G2 robust z-score": 1.75, "G2 cells, % of GMNN control": 15.2, "call": "inactive"}
{"gene knocked down": "RPL22 (ribosomal protein L22)", "reagent": 1, "G2 robust z-score": 0.844, "G2 cells, % of GMNN control": 8.91, "call": "inactive"}
{"gene knocked down": "RPL22 (ribosomal protein L22)", "reagent": 2, "G2 robust z-score": -0.319, "G2 cells, % of GMNN control": 0.722, "call": "inactive"}
{"gene knocked down": "RPL22 (ribosomal protein L22)", "reagent": 3, "G2 robust z-score": 0.365, "G2 cells, % of GMNN control": 5.53, "call": "inactive"}

2 of these entries, set out differently:
gene knocked down | reagent | G2 robust z-score | G2 cells, % of GMNN control | call
RPL22 (ribosomal protein L22) | 1 | 0.844 | 8.91 | inactive
RPL22 (ribosomal protein L22) | 2 | -0.319 | 0.722 | inactive

The results go on:
{"gene knocked down": "APBB1 (amyloid beta precursor protein binding family B member 1)", "reagent": 1, "G2 robust z-score": 0.0333, "G2 cells, % of GMNN control": 3.2, "call": "inactive"}
{"gene knocked down": "APBB1 (amyloid beta precursor protein binding family B member 1)", "reagent": 2, "G2 robust z-score": 0.529, "G2 cells, % of GMNN control": 6.69, "call": "inactive"}
{"gene knocked down": "APBB1 (amyloid beta precursor protein binding family B member 1)", "reagent": 3, "G2 robust z-score": 0.831, "G2 cells, % of GMNN control": 8.81, "call": "inactive"}
{"gene knocked down": "SP140L (SP140 like nuclear body protein)", "reagent": 1, "G2 robust z-score": 0.952, "G2 cells, % of GMNN control": 9.66, "call": "inactive"}
{"gene knocked down": "SP140L (SP140 like nuclear body protein)", "reagent": 2, "G2 robust z-score": -0.768, "G2 cells, % of GMNN control": -2.44, "call": "inactive"}
{"gene knocked down": "SP140L (SP140 like nuclear body protein)", "reagent": 3, "G2 robust z-score": -0.691, "G2 cells, % of GMNN control": -1.89, "call": "inactive"}
